3 sequences from PMC11574364 can be followed below.

Protein sequences, listed by entry. Tags and fused reporters are not part of them.
UniProt Q9ULM6, whole entry: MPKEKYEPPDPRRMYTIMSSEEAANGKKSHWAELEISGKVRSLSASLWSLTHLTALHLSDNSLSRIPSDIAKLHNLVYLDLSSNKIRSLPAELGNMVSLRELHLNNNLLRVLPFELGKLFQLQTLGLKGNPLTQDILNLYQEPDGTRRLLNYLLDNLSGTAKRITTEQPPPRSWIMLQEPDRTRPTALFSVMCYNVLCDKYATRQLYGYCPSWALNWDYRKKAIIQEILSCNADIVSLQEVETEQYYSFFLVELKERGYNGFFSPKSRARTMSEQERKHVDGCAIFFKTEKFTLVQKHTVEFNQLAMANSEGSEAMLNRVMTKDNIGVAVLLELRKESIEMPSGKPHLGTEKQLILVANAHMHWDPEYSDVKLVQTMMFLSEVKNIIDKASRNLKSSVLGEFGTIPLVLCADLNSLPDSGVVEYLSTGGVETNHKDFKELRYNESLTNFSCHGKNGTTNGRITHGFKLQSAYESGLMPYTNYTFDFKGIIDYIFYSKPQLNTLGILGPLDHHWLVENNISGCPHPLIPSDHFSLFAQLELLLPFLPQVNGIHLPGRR

The exact form of at least one protein or probe is not confirmed. For part of these data: Protein sequences can lack the tags named with them.

What all share (assay): human ORF protein microarray
The target in one data set is CNOT6 (Homo sapiens) (UniProt Q9ULM6). The note with it: 5' phosphate; Domain array: 20 mM Tris-HCl pH 7.4, 200 mM KCl, 0.2 mM EDTA, 0.05% NP40, 2 ug/ul heparin, overnight 4 C. ORF array: PBS pH 7.0 with RNase inhibitor, 100 ng RNA, 1 h.; recombinant protein; protein details: N-terminal GST-6xHis; label: internal DY647 at G18; letters put together from the description.

A further data set has as its target T1, SLC6A13 (Homo sapiens) (UniProt Q9NSD5).
T1 sequence (looked up, limits assumed): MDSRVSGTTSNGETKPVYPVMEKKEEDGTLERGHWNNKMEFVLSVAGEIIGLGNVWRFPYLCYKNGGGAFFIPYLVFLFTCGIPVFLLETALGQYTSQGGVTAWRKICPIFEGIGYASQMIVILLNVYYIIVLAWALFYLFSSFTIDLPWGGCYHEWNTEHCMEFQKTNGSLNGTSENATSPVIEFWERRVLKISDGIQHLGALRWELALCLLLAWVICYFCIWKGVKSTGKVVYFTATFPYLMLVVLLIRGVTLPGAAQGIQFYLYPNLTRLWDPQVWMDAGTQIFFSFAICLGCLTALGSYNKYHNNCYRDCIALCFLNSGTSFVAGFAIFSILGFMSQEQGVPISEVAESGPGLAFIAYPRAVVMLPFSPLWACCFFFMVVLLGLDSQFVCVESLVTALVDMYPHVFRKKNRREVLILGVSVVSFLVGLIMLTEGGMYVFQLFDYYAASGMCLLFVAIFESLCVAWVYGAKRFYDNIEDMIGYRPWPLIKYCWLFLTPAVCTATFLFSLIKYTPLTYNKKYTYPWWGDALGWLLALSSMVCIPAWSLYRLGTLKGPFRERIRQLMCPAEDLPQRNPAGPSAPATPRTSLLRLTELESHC
The note with it: 5' phosphate; Domain array: 20 mM Tris-HCl pH 7.4, 200 mM KCl, 0.2 mM EDTA, 0.05% NP40, 2 ug/ul heparin, overnight 4 C. ORF array: PBS pH 7.0 with RNase inhibitor, 100 ng RNA, 1 h.; recombinant protein; protein details: N-terminal GST-6xHis; label: internal DY647 at G18; letters put together from the description.

In the next data set the target is T2, FLI1 (Homo sapiens) (UniProt Q01543).
T2 sequence (looked up, limits assumed): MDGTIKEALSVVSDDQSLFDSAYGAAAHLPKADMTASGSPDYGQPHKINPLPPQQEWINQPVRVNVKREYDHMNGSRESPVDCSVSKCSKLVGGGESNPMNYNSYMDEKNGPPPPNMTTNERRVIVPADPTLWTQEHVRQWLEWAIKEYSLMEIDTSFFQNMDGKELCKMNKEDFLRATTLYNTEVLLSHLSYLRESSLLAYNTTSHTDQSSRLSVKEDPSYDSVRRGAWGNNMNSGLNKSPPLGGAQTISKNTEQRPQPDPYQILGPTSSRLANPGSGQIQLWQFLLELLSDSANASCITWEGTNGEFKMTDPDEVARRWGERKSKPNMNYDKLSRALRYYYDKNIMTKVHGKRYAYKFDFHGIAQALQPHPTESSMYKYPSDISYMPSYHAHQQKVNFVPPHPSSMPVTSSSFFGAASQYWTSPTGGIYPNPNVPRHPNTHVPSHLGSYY
The note with it: 5' phosphate; Domain array: 20 mM Tris-HCl pH 7.4, 200 mM KCl, 0.2 mM EDTA, 0.05% NP40, 2 ug/ul heparin, overnight 4 C. ORF array: PBS pH 7.0 with RNase inhibitor, 100 ng RNA, 1 h.; recombinant protein; protein details: N-terminal GST-6xHis; label: internal DY647 at G18; letters put together from the description.

A further data set addresses T3, TIMP3 (Homo sapiens) (UniProt P35625).
T3 sequence (looked up, limits assumed): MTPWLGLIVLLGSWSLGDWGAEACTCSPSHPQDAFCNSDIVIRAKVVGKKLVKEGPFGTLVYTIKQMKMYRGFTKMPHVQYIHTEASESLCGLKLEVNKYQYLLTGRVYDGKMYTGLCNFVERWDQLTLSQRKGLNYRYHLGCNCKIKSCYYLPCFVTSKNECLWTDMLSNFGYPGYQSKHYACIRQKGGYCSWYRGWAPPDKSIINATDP
The note with it: 5' phosphate; Domain array: 20 mM Tris-HCl pH 7.4, 200 mM KCl, 0.2 mM EDTA, 0.05% NP40, 2 ug/ul heparin, overnight 4 C. ORF array: PBS pH 7.0 with RNase inhibitor, 100 ng RNA, 1 h.; recombinant protein; protein details: N-terminal GST-6xHis; label: internal DY647 at G18; letters put together from the description.

Another data set addresses T4, YME1L1 (Homo sapiens) (UniProt Q96TA2).
T4 sequence (looked up, limits assumed): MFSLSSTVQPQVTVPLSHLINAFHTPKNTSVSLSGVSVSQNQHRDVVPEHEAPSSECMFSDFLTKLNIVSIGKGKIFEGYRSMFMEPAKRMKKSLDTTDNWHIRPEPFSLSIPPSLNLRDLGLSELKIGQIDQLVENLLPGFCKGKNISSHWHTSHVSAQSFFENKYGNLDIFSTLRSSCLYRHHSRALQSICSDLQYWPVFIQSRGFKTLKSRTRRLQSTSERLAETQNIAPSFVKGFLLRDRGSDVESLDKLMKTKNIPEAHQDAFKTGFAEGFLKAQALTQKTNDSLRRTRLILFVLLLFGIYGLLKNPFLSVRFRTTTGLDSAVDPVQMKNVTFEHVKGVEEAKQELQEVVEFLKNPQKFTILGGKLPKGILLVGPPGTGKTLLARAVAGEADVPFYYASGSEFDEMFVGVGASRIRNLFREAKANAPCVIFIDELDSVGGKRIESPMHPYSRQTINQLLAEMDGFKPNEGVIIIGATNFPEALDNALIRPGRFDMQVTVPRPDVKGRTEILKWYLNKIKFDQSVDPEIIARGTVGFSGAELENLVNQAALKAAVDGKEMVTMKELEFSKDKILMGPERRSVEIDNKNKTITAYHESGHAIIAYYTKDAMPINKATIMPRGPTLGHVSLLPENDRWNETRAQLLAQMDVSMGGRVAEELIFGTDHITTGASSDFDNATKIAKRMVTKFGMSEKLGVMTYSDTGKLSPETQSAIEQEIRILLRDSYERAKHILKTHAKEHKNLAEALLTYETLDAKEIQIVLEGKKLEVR
To be noted: 5' phosphate; Domain array: 20 mM Tris-HCl pH 7.4, 200 mM KCl, 0.2 mM EDTA, 0.05% NP40, 2 ug/ul heparin, overnight 4 C. ORF array: PBS pH 7.0 with RNase inhibitor, 100 ng RNA, 1 h.; recombinant protein; protein details: N-terminal GST-6xHis; label: internal DY647 at G18; letters put together from the description.

A further data set has as its target T5, GAL (Homo sapiens) (UniProt P22466).
T5 sequence (looked up, limits assumed): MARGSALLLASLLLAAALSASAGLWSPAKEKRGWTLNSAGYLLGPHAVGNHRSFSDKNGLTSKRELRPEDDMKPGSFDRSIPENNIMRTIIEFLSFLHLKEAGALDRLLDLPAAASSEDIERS
The note with it: 5' phosphate; amino-C6 U at position 18; Domain array: 20 mM Tris-HCl pH 7.4, 200 mM KCl, 0.2 mM EDTA, 0.05% NP40, 2 ug/ul heparin, overnight 4 C. ORF array: PBS pH 7.0 with RNase inhibitor, 100 ng RNA, 1 h.; recombinant protein; protein details: N-terminal GST-6xHis; label: internal Cy5 or DY647.

Regarding “CAGUGCAAUGAUGAAAGGGCAU [miR-130b (internal labeling)]”, the binding result with CNOT6 (Homo sapiens), in the data set with SLC6A13 (Homo sapiens) and with FLI1 (Homo sapiens) was “binds” each time.
For the sequence “UAGCUUAUCAGACUGAUGUUGA [miR-21 (internal labeling)]”, the binding result with TIMP3 (Homo sapiens) and with YME1L1 (Homo sapiens) was “binds” each time.
For “UGAGGUAGUAGGUUGUGUGGUU [let-7b (internal labeling)]”, the binding result with GAL (Homo sapiens) is recorded as “binds”.
